For test [1], the target named is Cul3^NTD, N-terminal region (residues 20-381) of cullin 3 (UniProt Q13618). Briefly: SEC; BTB domain mixed with Cul3^NTD at 4°C in 20 mM NaP, 200 mM NaCl, 2 mM DTT pH 7.5; Superdex 200 10/30; SDS-PAGE of the peaks; both purified. (SEC sorts molecules by how far they enter the pores of the column.)
Test [2] has the same target. Briefly: condition: 55 μM (as tetramer) titrated into 25 μM Cul3^NTD; ITC; BTB domain (55 μM as tetramer) titrated into Cul3^NTD (25 μM); 22°C; 20 mM NaP, 200 mM NaCl, 2 mM DTT pH 7.5; single-binding site model; both purified.

The chains behind the UniProt entries cited, without tags or fusion partners. Residues count along the entry.
UniProt Q96CX2, residues 27-131: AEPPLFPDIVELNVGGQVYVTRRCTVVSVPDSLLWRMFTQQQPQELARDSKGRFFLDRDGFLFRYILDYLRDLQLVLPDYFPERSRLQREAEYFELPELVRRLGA

Results are given in words; binding and its absence hold for the method and conditions named.

With “BTB domain of KCTD12 (KCTD12^BTB) (from UniProt Q96CX2 27-131) (domain or fragment)”, the binding entry in test [1] and in test [2] was “no binding” in each case.

The values are drawn from PMC4431850.
